The source of these data is the supplement of paper PMC12819154, “High-throughput peptide-centric local stability assay extends protein–ligand identification to membrane proteins, tissues and bacteria” (Nature Structural & Molecular Biology, 2025).

Amino acid sequences for entries named in this document (tags omitted). A change or cut given only in a name is not applied to a line headed by its entry.
UniProt O43325: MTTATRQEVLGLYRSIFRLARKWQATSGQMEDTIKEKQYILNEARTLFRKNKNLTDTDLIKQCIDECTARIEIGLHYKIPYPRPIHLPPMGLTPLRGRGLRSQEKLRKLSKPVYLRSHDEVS
UniProt O60239: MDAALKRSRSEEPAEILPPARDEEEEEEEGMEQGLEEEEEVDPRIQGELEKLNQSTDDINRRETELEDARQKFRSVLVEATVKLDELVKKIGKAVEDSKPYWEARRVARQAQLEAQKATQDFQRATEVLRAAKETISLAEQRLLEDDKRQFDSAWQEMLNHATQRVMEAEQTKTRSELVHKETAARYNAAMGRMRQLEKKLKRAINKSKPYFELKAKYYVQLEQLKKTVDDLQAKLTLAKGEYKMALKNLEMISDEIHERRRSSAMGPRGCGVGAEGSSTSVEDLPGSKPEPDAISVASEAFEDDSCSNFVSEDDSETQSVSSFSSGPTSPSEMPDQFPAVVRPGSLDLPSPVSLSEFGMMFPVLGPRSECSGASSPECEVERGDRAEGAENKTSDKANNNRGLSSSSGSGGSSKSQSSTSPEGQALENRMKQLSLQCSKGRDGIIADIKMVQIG
UniProt O43395: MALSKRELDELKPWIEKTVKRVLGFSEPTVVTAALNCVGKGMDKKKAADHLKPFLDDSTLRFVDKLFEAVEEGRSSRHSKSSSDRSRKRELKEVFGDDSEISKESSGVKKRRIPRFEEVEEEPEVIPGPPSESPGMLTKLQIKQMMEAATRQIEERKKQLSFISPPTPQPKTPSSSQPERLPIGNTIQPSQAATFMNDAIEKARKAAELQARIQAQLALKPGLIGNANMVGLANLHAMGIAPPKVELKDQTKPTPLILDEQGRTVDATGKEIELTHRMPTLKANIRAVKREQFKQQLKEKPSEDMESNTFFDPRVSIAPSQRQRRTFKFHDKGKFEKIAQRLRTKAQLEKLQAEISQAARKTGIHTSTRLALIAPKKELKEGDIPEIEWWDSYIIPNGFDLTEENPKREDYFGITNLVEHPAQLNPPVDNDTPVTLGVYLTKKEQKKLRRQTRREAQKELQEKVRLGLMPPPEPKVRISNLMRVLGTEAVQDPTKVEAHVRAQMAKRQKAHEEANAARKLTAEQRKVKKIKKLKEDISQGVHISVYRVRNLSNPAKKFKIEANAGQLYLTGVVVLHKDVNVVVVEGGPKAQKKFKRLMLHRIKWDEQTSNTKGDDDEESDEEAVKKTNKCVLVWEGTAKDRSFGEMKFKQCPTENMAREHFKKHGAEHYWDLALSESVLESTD
UniProt O15534, whole entry: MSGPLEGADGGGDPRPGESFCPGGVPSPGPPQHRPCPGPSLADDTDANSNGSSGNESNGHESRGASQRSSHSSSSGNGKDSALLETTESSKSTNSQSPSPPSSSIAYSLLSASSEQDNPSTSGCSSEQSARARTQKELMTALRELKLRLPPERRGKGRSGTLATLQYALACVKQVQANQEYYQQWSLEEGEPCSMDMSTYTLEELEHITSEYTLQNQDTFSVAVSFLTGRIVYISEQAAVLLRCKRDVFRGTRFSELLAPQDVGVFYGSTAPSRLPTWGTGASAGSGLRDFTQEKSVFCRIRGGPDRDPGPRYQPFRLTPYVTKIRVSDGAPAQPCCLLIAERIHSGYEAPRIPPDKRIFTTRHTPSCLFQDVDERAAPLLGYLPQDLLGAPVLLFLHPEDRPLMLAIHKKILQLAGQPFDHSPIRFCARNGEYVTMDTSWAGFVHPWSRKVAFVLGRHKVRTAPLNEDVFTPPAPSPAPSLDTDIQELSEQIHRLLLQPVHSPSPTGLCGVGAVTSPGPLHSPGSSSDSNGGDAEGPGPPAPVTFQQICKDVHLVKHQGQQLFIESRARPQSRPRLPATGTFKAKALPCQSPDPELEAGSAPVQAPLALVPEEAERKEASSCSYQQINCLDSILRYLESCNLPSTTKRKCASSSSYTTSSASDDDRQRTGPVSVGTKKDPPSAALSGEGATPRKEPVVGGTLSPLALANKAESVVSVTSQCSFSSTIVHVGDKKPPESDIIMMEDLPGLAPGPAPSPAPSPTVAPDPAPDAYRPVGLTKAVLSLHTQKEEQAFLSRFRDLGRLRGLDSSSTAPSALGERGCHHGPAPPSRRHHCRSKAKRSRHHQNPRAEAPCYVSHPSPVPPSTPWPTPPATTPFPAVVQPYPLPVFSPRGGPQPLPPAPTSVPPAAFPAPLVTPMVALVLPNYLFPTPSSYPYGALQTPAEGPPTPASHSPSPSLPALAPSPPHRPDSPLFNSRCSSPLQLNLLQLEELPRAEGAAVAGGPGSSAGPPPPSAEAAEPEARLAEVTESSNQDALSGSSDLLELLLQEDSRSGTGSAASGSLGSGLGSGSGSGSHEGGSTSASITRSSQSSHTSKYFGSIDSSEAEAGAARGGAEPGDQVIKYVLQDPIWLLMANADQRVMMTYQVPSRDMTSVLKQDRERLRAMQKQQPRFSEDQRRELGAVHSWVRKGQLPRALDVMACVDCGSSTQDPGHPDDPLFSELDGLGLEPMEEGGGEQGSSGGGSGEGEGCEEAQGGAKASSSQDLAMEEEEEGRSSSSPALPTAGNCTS
UniProt O15530: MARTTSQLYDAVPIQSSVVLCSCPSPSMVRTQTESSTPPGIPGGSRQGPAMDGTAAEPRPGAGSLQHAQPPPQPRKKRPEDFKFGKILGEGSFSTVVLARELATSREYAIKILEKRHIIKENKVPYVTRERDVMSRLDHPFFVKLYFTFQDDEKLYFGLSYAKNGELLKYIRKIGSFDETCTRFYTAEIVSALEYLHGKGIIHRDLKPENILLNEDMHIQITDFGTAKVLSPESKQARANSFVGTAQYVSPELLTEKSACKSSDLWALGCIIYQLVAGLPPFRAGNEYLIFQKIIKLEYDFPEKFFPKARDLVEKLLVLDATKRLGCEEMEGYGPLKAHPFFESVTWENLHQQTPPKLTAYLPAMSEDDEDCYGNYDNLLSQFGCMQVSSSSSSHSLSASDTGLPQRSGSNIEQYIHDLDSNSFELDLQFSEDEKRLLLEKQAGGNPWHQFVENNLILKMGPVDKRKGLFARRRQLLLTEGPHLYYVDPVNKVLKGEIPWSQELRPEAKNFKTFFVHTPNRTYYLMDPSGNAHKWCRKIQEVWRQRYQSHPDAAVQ
UniProt O75150, whole entry: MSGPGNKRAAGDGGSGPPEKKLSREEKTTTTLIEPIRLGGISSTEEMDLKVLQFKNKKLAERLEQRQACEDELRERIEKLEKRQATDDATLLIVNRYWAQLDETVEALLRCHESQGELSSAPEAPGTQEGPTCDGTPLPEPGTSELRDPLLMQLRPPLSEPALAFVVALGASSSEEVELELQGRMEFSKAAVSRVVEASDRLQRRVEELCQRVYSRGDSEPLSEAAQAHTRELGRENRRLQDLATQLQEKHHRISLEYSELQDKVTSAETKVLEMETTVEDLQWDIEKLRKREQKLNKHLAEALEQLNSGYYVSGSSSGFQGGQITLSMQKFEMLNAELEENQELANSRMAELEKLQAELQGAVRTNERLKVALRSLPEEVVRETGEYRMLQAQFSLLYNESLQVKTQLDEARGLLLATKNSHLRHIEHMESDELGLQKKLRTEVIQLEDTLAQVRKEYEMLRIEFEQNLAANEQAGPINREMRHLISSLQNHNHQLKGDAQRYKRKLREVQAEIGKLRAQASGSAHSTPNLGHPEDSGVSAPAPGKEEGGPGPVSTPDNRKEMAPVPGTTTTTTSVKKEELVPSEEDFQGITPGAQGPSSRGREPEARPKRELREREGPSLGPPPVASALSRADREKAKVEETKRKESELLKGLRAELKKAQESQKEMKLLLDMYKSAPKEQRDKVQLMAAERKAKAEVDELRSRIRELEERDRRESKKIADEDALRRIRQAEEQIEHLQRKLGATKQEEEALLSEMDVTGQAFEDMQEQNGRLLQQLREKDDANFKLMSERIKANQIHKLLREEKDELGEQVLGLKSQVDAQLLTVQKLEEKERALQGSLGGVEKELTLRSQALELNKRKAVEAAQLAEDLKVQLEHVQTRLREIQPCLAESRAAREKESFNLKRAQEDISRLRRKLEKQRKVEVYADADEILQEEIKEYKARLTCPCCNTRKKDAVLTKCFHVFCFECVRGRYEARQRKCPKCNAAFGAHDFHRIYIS
UniProt O43768: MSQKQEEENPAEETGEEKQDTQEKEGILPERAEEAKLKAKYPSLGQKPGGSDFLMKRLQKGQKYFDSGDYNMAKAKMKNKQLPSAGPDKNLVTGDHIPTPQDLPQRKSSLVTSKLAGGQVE
UniProt O43566: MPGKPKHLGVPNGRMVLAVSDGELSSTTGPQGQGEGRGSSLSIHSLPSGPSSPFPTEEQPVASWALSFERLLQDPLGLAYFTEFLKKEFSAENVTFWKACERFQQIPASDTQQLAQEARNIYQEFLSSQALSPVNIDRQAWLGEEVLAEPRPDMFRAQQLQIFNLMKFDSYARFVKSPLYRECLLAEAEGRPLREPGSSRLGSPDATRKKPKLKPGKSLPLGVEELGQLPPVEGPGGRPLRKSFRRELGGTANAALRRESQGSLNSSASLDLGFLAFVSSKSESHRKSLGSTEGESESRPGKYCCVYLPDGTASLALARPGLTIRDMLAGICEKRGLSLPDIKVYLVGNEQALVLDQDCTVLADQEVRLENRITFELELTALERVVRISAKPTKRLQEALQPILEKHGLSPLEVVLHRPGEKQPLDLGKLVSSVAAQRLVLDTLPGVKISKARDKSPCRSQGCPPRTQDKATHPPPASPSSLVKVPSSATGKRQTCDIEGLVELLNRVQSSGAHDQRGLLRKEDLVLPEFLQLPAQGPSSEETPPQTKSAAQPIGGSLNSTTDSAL
UniProt O43257, whole entry: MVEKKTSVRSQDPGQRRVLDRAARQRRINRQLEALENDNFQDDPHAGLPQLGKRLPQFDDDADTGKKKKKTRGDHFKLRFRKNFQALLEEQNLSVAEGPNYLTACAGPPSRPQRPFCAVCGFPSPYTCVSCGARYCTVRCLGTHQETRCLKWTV
UniProt O60829: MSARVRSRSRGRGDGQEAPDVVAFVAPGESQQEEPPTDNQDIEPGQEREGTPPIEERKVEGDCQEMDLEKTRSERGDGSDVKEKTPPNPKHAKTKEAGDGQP
UniProt O75131: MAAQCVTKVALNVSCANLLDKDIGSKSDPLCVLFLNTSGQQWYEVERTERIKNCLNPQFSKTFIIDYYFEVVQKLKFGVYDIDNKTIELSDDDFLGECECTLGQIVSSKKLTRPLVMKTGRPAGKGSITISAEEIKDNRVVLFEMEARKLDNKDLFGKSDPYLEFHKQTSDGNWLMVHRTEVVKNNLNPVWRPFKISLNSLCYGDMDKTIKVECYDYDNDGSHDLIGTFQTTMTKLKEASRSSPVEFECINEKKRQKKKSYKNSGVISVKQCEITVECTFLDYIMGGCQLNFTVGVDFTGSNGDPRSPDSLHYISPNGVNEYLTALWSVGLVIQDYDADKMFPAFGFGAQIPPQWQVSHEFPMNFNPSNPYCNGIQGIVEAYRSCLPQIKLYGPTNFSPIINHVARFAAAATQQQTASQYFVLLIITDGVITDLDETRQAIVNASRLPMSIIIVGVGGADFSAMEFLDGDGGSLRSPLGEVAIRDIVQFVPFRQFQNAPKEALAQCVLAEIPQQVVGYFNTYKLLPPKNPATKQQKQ
UniProt O43293: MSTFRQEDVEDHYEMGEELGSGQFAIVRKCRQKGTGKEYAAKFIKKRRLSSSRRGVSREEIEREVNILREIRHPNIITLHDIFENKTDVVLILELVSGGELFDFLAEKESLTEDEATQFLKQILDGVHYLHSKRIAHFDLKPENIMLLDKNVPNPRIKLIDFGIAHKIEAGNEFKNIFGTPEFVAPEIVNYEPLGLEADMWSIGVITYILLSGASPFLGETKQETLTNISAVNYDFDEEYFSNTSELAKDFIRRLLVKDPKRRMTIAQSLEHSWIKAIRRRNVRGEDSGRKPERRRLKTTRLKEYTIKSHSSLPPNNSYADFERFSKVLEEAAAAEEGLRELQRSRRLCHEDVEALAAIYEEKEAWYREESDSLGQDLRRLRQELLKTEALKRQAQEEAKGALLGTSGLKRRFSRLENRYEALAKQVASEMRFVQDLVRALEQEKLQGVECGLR
UniProt O60701: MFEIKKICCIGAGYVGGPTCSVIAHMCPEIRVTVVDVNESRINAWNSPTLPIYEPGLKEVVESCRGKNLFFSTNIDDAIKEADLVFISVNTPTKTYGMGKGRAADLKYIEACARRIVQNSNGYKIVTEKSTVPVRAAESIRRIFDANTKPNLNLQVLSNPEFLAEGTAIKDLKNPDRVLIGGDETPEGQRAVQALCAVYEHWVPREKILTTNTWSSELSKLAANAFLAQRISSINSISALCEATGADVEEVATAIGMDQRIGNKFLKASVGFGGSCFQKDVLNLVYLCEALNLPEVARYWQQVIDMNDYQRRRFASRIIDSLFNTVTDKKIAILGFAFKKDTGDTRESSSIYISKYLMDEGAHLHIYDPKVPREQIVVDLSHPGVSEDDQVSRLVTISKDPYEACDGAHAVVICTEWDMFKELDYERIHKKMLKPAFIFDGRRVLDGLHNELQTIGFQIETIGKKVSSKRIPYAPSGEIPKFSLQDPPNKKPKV

This is one part of the list. Most entries show no effect beyond the scatter of the controls.

Compound in the test: CN[C@@H]1C[C@H]2O[C@@](C)([C@@H]1OC)n1c3ccccc3c3c4c(c5c6ccccc6n2c5c31)C(=O)NC4 [staurosporine]
Put plainly: log2 fold change of tryptic peptide abundance, ligand vs vehicle (limited proteolysis) (log2 ratio); higher = more trypsin-susceptible (destabilized). The settings on record: ligand concentration: 20 uM; sample: K562 cleared lysate; digestion: 4 min, 22 C (HT-PELSA RT4min, Orbitrap Astral).
As for “PTCD1 (peptide sequence: EEATVLQPPVSR, peptide start residue: 349) (UniProt O75127)”, the log2 fold change amounted to 0.346. Take “RTN2 (peptide sequence: AKIPGTGALASAAAAVSGSK, peptide start residue: 522) (UniProt O75298)”: the log2 fold change turned out to be 0.0835. Regarding “UniProt O60341 (peptide sequence: HVKDEQIEHWKK, peptide start residue: 422)”, the log2 fold change stood at 0.868.

On to “BUB1B (peptide sequence: FLNLWLK, peptide start residue: 121) (UniProt O60566)”, for which the log2 fold change was -0.303.

On to “LYRM1 (peptide sequence: KLSKPVYLR, peptide start residue: 108) (UniProt O43325)”, for which the log2 fold change turned out to be 0.483. Then “HIP1R (peptide sequence: DGHPNVLHDCQR, peptide start residue: 96) (UniProt O75146)”, with 0.646; and “ARPC5 (peptide sequence: DRAGSIVLK, peptide start residue: 73) (UniProt O15511)”, with 0.453; and “SH3BP5 (peptide sequence: QFDSAWQEMLNHATQR, peptide start residue: 150) (UniProt O60239)”, with -0.405. Then “Jak2 (peptide sequence: NILLIREEDRK, peptide start residue: 678) (UniProt O60674)”, with -0.394. On to “PRPF3 (peptide sequence: IEANAGQLYLTGVVVLHK, peptide start residue: 560) (UniProt O43395)”, for which the log2 fold change was -0.353. The figure for “UniProt O43913 (peptide sequence: NIEPHLKK, peptide start residue: 256)” is 0.438; for “PER1 (peptide sequence: KDPPSAALSGEGATPR, peptide start residue: 679) (UniProt O15534)” it is -0.311; for “UniProt O15530 (peptide sequence: YQSHPDAAVQ, peptide start residue: 547)” it is 0.0516. On to “RNF40 (peptide sequence: KVEVYADADEILQEEIKEYK, peptide start residue: 924) (UniProt O75150)”, for which the log2 fold change was 0.393. The figure for “ENSA (peptide sequence: YPSLGQKPGGSDFLMKR, peptide start residue: 41) (UniProt O43768)” is 0.594; for “UniProt O60548 (peptide sequence: GAAAAAGSPGPGAAAAR, peptide start residue: 89)” it is -0.124; for “RGS10 (peptide sequence: KMQDKTQMQEK, peptide start residue: 79) (UniProt O43665)” it is 0.494.

Turning to “MCM3AP (peptide sequence: LAVVHFFDHASAALAR, peptide start residue: 473) (UniProt O60318)”, the log2 fold change was -0.463. As for “RGS14 (peptide sequence: HGLSPLEVVLHRPGEK, peptide start residue: 407) (UniProt O43566)”, the log2 fold change amounted to 0.37. For the target “ZNHIT1 (peptide sequence: LPQFDDDADTGKK, peptide start residue: 55) (UniProt O43257)”, the log2 fold change came out at 0.485. Turning to “ZNF292 (peptide sequence: VSVISGPQNTR, peptide start residue: 1606) (UniProt O60281)”, the log2 fold change was -0.108. Then “BCAS1 (peptide sequence: EAKPEAPAAK, peptide start residue: 83) (UniProt O75363)”, with 0.357; and “PAGE4 (peptide sequence: EGTPPIEER, peptide start residue: 49) (UniProt O60829)”, with -0.172; and “CPNE3 (peptide sequence: SYKNSGVISVK, peptide start residue: 260) (UniProt O75131)”, with 1.13.

With “DAPK3 (peptide sequence: GALLGTSGLKR, peptide start residue: 401) (UniProt O43293)”, the log2 fold change is -0.188. Regarding “SIPA1L1 (peptide sequence: VHNPCSDSVCYSVAVTR, peptide start residue: 741) (UniProt O43166)”, the log2 fold change is -0.375.

On to “MAST3 (peptide sequence: SSENVLDEEGGR, peptide start residue: 134) (UniProt O60307)”, for which the log2 fold change came to 0.322. Then “UGDH (peptide sequence: RVLDGLHNELQTIGFQIETIGKK, peptide start residue: 443) (UniProt O60701)”, with -0.273.
